Results published in PubChem BioAssay AID540276 (National Center for Advancing Translational Sciences (NCATS), 2011).
In all, about 300,000 compounds went through this assay and about 5,400 (1.8%) were called active. Inconclusive results, whose numbers are uncertain, are shown with a selection of clear calls. The call rests on the fitted dose curve; tested in HEK293 cells. Potencies beside an inconclusive call are fits to weak or partial responses and may not hold up.

Experiment: qHTS for inhibitors of binding or entry into cells for Marburg Virus
Conditions: Marburg virus pseudotyped entry inhibition, cell reporter; activity change, negative = inhibition: at 37.8 µM (top of the series) unless noted
On the % scale 0 is the no-effect control and ±100 the full control effect; potency means the concentration at half of the fitted maximal effect.

Structure (SMILES)	activity change, negative = inhibition	Potency
CCN(CC)C(=O)COc1ccc(/C(C)=N/NC(=O)c2ccccc2O)cc1	inactive: 5.73% [at 46.1 µM]	
Cc1ccc(CCC(=O)Nc2ncc(Cc3cc(Cl)ccc3Cl)s2)o1		active: 0.651 µM
COc1ccc(Nc2nc(C)nc(N)c2S(=O)(=O)c2ccccc2)cc1	inactive: -6.24% [at 46.1 µM]	
OC(c1ccc2ccccc2n1)c1c(Cl)cccc1Cl (stereo not given)		inconclusive: 3.16 µM [inhibitor, partial curve, poor fit]
CCN(CC)S(=O)(=O)c1ccc(Cl)c(C(=O)Oc2cccc(-c3cnc4ccccc4n3)c2)c1		inconclusive: 35.5 µM [inhibitor, single point]
COc1ccc(C(=O)Nc2ccc(N3CCCCC3)cc2)cc1Br	inactive: -3.64%	
COC(=O)c1ccn(Cc2ccccc2Cl)n1	inactive: -29.4% [at 46.1 µM]	
O=C(Oc1ccc2ccccc2c1)c1cncc(Br)c1		inconclusive: 1.12 µM [inhibitor, partial curve, poor fit]
Cc1cccc(NC(=O)Cn2c(=O)n(CCCCCC(=O)NCc3ccc4c(c3)OCO4)c(=O)c3sccc32)c1		inconclusive: 14.1 µM [activator, single point]
CC(=O)N1C(=O)N(C)C2C1N(C(C)=O)C(=O)N2C (stereo not given)		inconclusive: 0.316 µM [inhibitor, full curve]
COc1ccc(S(=O)(=O)NC(C)C(=O)Nc2cccc(C(C)=O)c2)cc1 (stereo not given)		inconclusive: 35.5 µM [inhibitor, single point]
O=C(N/N=C/c1cccc(O)c1)c1ccc(-n2cnnn2)cc1		inconclusive: 3.16 µM [activator, partial curve, poor fit]
O=C(Nc1cccc(Cl)c1)N(Cc1nc2ccccc2c(=O)[nH]1)C1CCCC1		inconclusive: 35.5 µM [inhibitor, single point]
Oc1c(C(c2ccco2)N2CCN(C(c3ccccc3)c3ccccc3)CC2)sc2ncnn12 (stereo not given)	inactive: 3.53%	
COc1cccc2sc(N(C)c3ccccc3)nc12		inconclusive: 32.6 µM [inhibitor, single point]
CCOC(=O)c1ccc2[nH]c(C)c(C)c2c1	inactive: 26.7%	
CCc1cc(-c2[nH]ncc2-c2ccc(OC)cc2)c(O)cc1O		inconclusive: 12.6 µM [inhibitor, partial curve, poor fit]
c1ccc2c(c1)ccc1nnc(SCc3ccc4c(c3)OCCO4)n12	inactive: 3.62%	
COc1cc(C(=O)Nc2nc(-c3ccc(C)cc3)cs2)ccc1OCC(=O)N1CCOCC1	inactive: -2.36%	
CC(=O)C1CCC2C3CC(O)C4=CC(=O)CCC4(C)C3C(=O)CC12C (stereo not given)		inconclusive: 6.31 µM [inhibitor, partial curve, poor fit]
O=C(CSc1nnc(-c2ccco2)o1)c1ccc[nH]1		inconclusive: 5.62 µM [activator, single point]
Cn1cc(/C=C(\C#N)C(=O)Nc2ccccc2O)c2ccccc21		inconclusive: 35.5 µM [inhibitor, single point]
Cc1cccc(-n2ncc3c2CCCC3NC(=O)CCCN2CCCCC2=O)c1C (stereo not given)		inconclusive: 1.26 µM [activator, single point]

Shown bar-delimited: 2 of the compounds above.
Structure (SMILES) | activity change, negative = inhibition | Potency
CC(=O)N1C(=O)N(C)C2C1N(C(C)=O)C(=O)N2C (stereo not given) |  | inconclusive: 0.316 µM [inhibitor, full curve]
COc1ccc(S(=O)(=O)NC(C)C(=O)Nc2cccc(C(C)=O)c2)cc1 (stereo not given) |  | inconclusive: 35.5 µM [inhibitor, single point]

Following part

Structure (SMILES)	activity change, negative = inhibition	Potency
COc1nc(OC)nc(N2CCC(C(=O)NCc3ccco3)CC2)n1	inactive: -1.74%	
CN(C)S(=O)(=O)NCCNC(=O)c1cc(OCC(F)(F)F)ccc1OCC(F)(F)F		inconclusive: 8.91 µM [inhibitor, partial curve, poor fit]
CC(C)CCn1c(/C=C/c2ccccc2)nc2ccccc21		inconclusive: 3.16 µM [activator, partial curve, poor fit]
Cc1ccc(C(c2nnnn2Cc2ccccc2)N2CCN(Cc3ccccc3)CC2)cc1 (stereo not given)		inconclusive: 15.8 µM [inhibitor, partial curve, poor fit]
CNC(=S)NNC(=O)COc1cccc(C)c1C	inactive: -1.18%	
COC(=O)Cn1c(=NC(=O)c2ccc(S(=O)(=O)N3CCOCC3)cc2)sc2cc(S(N)(=O)=O)ccc21		inconclusive: 0.891 µM [activator, full curve, poor fit]
CC(=O)N1CCN(CC(=O)Nc2ccccc2Sc2ccc(Cl)cc2)CC1	inactive: -13.7%	
O=C(NCc1ccc2c(c1)OCO2)c1cc(-c2ccccc2)on1	inactive: 12.7%	
CCCCOC(=O)c1ccc(NC(=S)NC(=O)c2ccco2)cc1		inconclusive: 17.8 µM [inhibitor, partial curve, poor fit]
N#Cc1cc(C#N)c(N2CCN(c3ccccn3)CC2)nc1N		inconclusive: 5.17 µM [activator, full curve, poor fit]
Cc1ccc(S(=O)(=O)C(C#N)c2nc3ccccc3nc2N2CCCC2)cc1C (stereo not given)	inactive: -9.41%	
O=C(CCCCCn1c(=O)c2sccc2n(CC(=O)Nc2cc(C(F)(F)F)ccc2Cl)c1=O)NCc1ccccc1Cl		inconclusive: 20 µM [inhibitor, single point]
COc1ccc(/C=N/Nc2nc(Nc3ccccc3)nc(N3CCCCC3)n2)cc1OC		inconclusive: 35.5 µM [inhibitor, single point]
O=C(CCc1nc2ccccc2c(=O)[nH]1)NNC(=O)c1ccc(Cl)cc1		inconclusive: 3.55 µM [activator, single point]
CCCCCn1c(=O)c(C(=O)Nc2ccccc2S(N)(=O)=O)c(O)c2ccccc21		inconclusive: 6.31 µM [inhibitor, partial curve, poor fit]
CCOCC(=O)Nc1nnc(Cc2ccc(OC)cc2)s1	inactive: 5.03%	
CC1CCCC(NC(=O)COC(=O)c2cc3ccccc3oc2=O)C1C (stereo not given)		inconclusive: 12.6 µM [activator, single point]
O=c1nc(/C=C/c2cccn2-c2ccc([N+](=O)[O-])cc2)cc(C(F)(F)F)[nH]1	inactive: 13.1% [at 46.1 µM]	
COc1ccccc1-c1cc2nc(C)c(CCC(=O)NCCc3cccc(C)c3)c(C)n2n1	inactive: -25.5% [at 46.1 µM]	
COc1cc(C(=O)N/N=C/c2sc(=O)n(-c3ccccc3)c2Cl)cc(OC)c1OC	inactive: -49.2%	
CC(SCc1ccccc1)C(=O)N/N=C/c1cccs1 (stereo not given)		inconclusive: 1.26 µM [activator, single point]
CC(C)c1cc(C(=O)NNC(=S)NC2CCCCC2)cs1	inactive: 9.64% [at 46.1 µM]	
